Measured values from article PMC4537474.
For at least one entry, the source does not settle the construct or the ends of the probe. The comparison behind a weaker result is the experiment's own reference, which may not be listed here.

Protein sequences, listed by entry. Tags and fused reporters are not part of them. Lines headed by an entry give the natural chain unless they say otherwise; changes in a name come on top.
UniProt Q8ED80: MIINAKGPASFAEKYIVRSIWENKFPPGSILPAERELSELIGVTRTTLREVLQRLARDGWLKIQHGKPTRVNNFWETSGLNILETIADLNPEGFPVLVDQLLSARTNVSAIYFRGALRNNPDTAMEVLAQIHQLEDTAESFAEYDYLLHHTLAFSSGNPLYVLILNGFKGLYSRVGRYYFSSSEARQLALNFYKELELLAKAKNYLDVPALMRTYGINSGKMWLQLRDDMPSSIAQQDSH
UniProt P0A8V6: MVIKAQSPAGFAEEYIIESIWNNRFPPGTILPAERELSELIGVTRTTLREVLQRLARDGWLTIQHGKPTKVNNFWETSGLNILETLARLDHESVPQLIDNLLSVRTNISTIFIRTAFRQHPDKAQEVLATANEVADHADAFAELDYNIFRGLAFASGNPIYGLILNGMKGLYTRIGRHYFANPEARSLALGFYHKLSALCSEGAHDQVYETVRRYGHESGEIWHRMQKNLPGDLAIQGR

Columns and labels:
FadR_she = FadR_she (UniProt Q8ED80); test: EMSA; details: EMSA: Roche binding buffer, 20 min, room temperature, 0.2 pmol DIG probe (10 uL in Fig. 6), 7% native PAGE, recombinant protein, residues 1-240, protein details: 6xHis (pET28a), label: digoxigenin
[1] = biological target: FadR_ec (Escherichia coli (K-12)) (UniProt P0A8V6); test: EMSA; details: EMSA: Roche binding buffer, 20 min, room temperature, 0.2 pmol DIG probe (10 uL in Fig. 6), 7% native PAGE, recombinant protein, residues 1-239, protein details: 6xHis (pET28), label: digoxigenin

Measured: binding result

GACATTAATTAGCTGATCGGAGTTGTTTAGCTTACACGTGTTCGCTAATCTTGGCG (double strand) [fabA_she probe]
binds more weakly: FadR_she; C16:0-CoA ~50 pmol | FadR_she; C16:1-CoA ~50 pmol | FadR_she; C18:0-CoA ~50 pmol | FadR_she; C18:1-CoA ~50 pmol | [1]; C16:0-CoA ~50 pmol | [1]; C16:1-CoA ~50 pmol | [1]; C18:0-CoA ~50 pmol | [1]; C18:1-CoA ~50 pmol
